Laboratory results reported in paper doi:10.1101/2025.04.11.648407.
Read-outs that look alike come from different tables or passages of the source. No constants are given. Whether binding was seen depends on the method and setting. In cells and extracts the contact can be indirect. A result given as binding can be weak or reduced; the word gives no strength.

Sequences of proteins named here, by UniProt entry; tags and fusion partners are left off. A change or cut given only in a name is not applied to a line headed by its entry.
UniProt O95214: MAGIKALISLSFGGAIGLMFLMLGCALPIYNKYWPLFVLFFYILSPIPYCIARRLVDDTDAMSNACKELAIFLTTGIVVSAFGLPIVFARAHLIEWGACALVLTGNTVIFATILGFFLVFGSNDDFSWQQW

Assays:
[1] = molecular target: LEPROTL1 R90A (human) (UniProt O95214); assay: co-IP
[2] = molecular target: LEPROTL1 R90A (human) (UniProt O95214); assay: co-IP; remark: listed apart in the source

With “EGFR (from UniProt P00533 25-1210) (receptor)” the binding [1] was “binds” and the binding [2] was “binds”.
